# The list does not hold the whole screen: it is rich in T/C values a quarter to a half above the control, in often repeated tests (any T/C) and in doses without a T/C. Other doses and runs of a compound stand elsewhere. T/C: endpoint of the treated group in % of that of the vehicle group. Some doses have a count of surviving animals in place of a T/C: the source holds a T/C of zero for them, seemingly a mark for toxic or unscored doses. Some survivor counts are full or nearly so, which does not show that the dose was tolerated: survival well below the control is almost never listed, so the zero probably covers shortened survival too. Survivors were counted at the toxicity check, usually on the fifth day, unless a day is given; later deaths do not show. Schedule codes are those of the source, read here as Q, the interval in days (D) or hours (H), X, the number of doses. Some entries were tested several times; their values stand side by side, smallest first. Where survival is the endpoint, this PubChem deposit counts one and a half times the control or more as active, and values a quarter to a half above the control carry no call in these data; other NCI protocols may use other cut-offs. Some T/C values are followed by the survivors on the day toxicity was checked, most often the fifth; where none is given, no animal had died by that day.
# Tested on: P388 leukemia ip, CD2F1 mice, survival T/C
# Assay: NCI In Vivo Anticancer Drug Screen. Data for tumor model P388 Leukemia (intraperitoneal) in CD2F1 (CDF1) mice
# Details: T/C endpoint: median survival time, higher T/C = longer survival
# [1] = dose: 50.0 mg/kg/injection, schedule: Q01DX005 (ip), vehicle: saline with Tween-80
# [2] = dose: 25.0 mg/kg/injection, schedule: Q01DX005 (ip), vehicle: water
compound,measurement,setting,value
CC1(C)CC(=O)c2c(oc3cc4c5c(oc4cc23)CC(C)(C)CC5=O)C1,survivor count,[1],5 of 5 and 6 of 6
COC(=O)/C=C/N(Cc1ccccc1)/N=N/N(/C=C/C(=O)OC)Cc1ccccc1,survivor count,[1],6 of 6
same,survivor count,"dose: 100.0 mg/kg/injection, schedule: Q01DX005 (ip), vehicle: saline with Tween-80",6 of 6
CCOc1ccc(-c2nc3ccc(-c4nc5ccc(N6CCN(C)CC6)cc5[nH]4)cc3[nH]2)cc1,T/C,"dose: 3.13 mg/kg/injection, schedule: Q01DX005 (ip), vehicle: water",127 and 131 % of control
same,T/C,"dose: 6.25 mg/kg/injection, schedule: Q01DX005 (ip), vehicle: water","128, 134, 150, 156 % of control"
same,T/C,"dose: 12.5 mg/kg/injection, schedule: Q01DX005 (ip), vehicle: water","127, 147, 150, 173 % of control"
same,T/C,[2],"90, 106, 150 % of control"
same,survivor count,[2],5 of 6
same,survivor count,"dose: 50.0 mg/kg/injection, schedule: Q01DX005 (ip), vehicle: water",3 of 6
same,survivor count,"dose: 100.0 mg/kg/injection, schedule: Q01DX005 (ip), vehicle: water",0 of 6
same,survivor count,"dose: 200.0 mg/kg/injection, schedule: Q01DX005 (ip), vehicle: water",0 of 6
O=NNc1ccc(Sc2ccc(NN=O)nc2)cc1,survivor count,"dose: 25.0 mg/kg/injection, schedule: Q01DX009 (ip), vehicle: water",6 of 6
same,survivor count,"dose: 50.0 mg/kg/injection, schedule: Q01DX009 (ip), vehicle: water",5 of 6
COc1cc[c]([Sn]([O][Sn]([Cl])([c]2ccc(OC)cc2)[c]2ccc(OC)cc2)[c]2ccc(OC)cc2)cc1,T/C,"dose: 12.5 mg/kg/injection, schedule: Q01DX005 (ip), vehicle: Klucel (hydroxypropylcellulose) (HPC)",125 % of control
same,T/C,"dose: 25.0 mg/kg/injection, schedule: Q01DX005 (ip), vehicle: Klucel (hydroxypropylcellulose) (HPC)",131 % of control
same,survivor count,"dose: 50.0 mg/kg/injection, schedule: Q01DX005 (ip), vehicle: Klucel (hydroxypropylcellulose) (HPC)",0 of 6
same,survivor count,"dose: 100.0 mg/kg/injection, schedule: Q01DX005 (ip), vehicle: Klucel (hydroxypropylcellulose) (HPC)",0 of 6
same,survivor count,"dose: 200.0 mg/kg/injection, schedule: Q01DX005 (ip), vehicle: Klucel (hydroxypropylcellulose) (HPC)",0 of 6
CCN1C=C/C(=C\C=C/c2cc[n+](CC)c3ccccc23)c2ccccc21,T/C,"dose: 0.5 mg/kg/injection, schedule: Q04DX003 (ip), vehicle: saline",136 % of control
CCC1=C[C@@H]2C[C@](C(=O)OC)(c3cc4c(cc3OC)N(C)[C@H]3[C@@](O)(C(=O)OC)[C@H](OC(C)=O)[C@]5(CC)C=CCN6CC[C@]43[C@@H]65)c3[nH]c4ccccc4c3CCN(C1)C2=O,T/C,"dose: 9.4 mg/kg/injection, schedule: Q01DX001 (ip), vehicle: saline with Tween-80",136 % of control
same,T/C,"dose: 18.8 mg/kg/injection, schedule: Q01DX001 (ip), vehicle: other",136 % of control [2 of 3 alive]
same,T/C,"dose: 18.8 mg/kg/injection, schedule: Q01DX001 (ip), vehicle: saline with Tween-80",139 % of control
same,T/C,"dose: 18.8 mg/kg/injection, schedule: Q01DX001 (ip), vehicle: suspension in saline",145 % of control
same,T/C,"dose: 37.5 mg/kg/injection, schedule: Q01DX001 (ip), vehicle: other",146 % of control [2 of 3 alive]
same,T/C,"dose: 37.5 mg/kg/injection, schedule: Q01DX001 (ip), vehicle: saline with Tween-80",139 % of control
same,T/C,"dose: 56.3 mg/kg/injection, schedule: Q01DX001 (ip), vehicle: saline with Tween-80",139 % of control [2 of 3 alive]
same,survivor count,"dose: 56.33 mg/kg/injection, schedule: Q01DX001 (ip), vehicle: other",0 of 3
same,survivor count,"dose: 75.0 mg/kg/injection, schedule: Q01DX001 (ip), vehicle: suspension in saline",1 of 3
same,survivor count,"dose: 84.4 mg/kg/injection, schedule: Q01DX001 (ip), vehicle: other",0 of 3
same,survivor count,"dose: 84.4 mg/kg/injection, schedule: Q01DX001 (ip), vehicle: saline with Tween-80",0 of 3
same,survivor count,"dose: 150.0 mg/kg/injection, schedule: Q01DX001 (ip), vehicle: suspension in saline",0 of 3
same,survivor count,"dose: 300.0 mg/kg/injection, schedule: Q01DX001 (ip), vehicle: suspension in saline",0 of 3
